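Vaccinia-infected cells with a two-color viral stage reporter; Venus fluorescence read on a plate reader; the cell line is not named here; timing not stated here. The test concentration is not given here. Percent change in Venus reporter signal; lower (more negative) values mean stronger inhibition of that viral stage.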

Values are in %. How 0% and 100% were set is not given here. Common to all entries: measured here: Venus reporter, other viral stage. Part of the compounds only, not a random draw; the main read-out is not listed here.

| # | compound | activity change (Venus) (%) |
|---|---|---|
| 1 | `C[C@@H]1CN([C@H](C)CO)S(=O)(=O)c2ccc(C#Cc3ccccc3)cc2O[C@@H]1CN(C)C(=O)Cc1ccccn1` | -37.32 |
| 2 | `C[C@@H]1CCCCO[C@@H](CN(C)C(=O)C2CCCCC2)[C@H](C)CN([C@@H](C)CO)C(=O)c2cc(NS(=O)(=O)c3ccccc3)ccc2O1` | -38.34 |
| 3 | `C[C@@H]1CN([C@@H](C)CO)C(=O)c2cc(NS(=O)(=O)c3cccs3)ccc2O[C@@H]1CN(C)Cc1ccc(C(F)(F)F)cc1` | -41.66 |
| 4 | `O=C(CC1CC1)N1CC(=O)N2[C@H](C1)[C@H](c1ccc(C#Cc3cccc(F)c3)cc1)[C@@H]2CO` | -78.6 |
| 5 | `C/C=C/c1ccc2c(c1)O[C@@H](CN(C)C(=O)Nc1ccc(C(F)(F)F)cc1)[C@@H](C)CN([C@@H](C)CO)S2(=O)=O` | -60.88 |
| 6 | `C[C@@H]1CCCCO[C@@H](CN(C)Cc2ccc(Cl)c(Cl)c2)[C@H](C)CN([C@@H](C)CO)C(=O)c2cc(NC(=O)CCC(F)(F)F)ccc2O1` | -79.16 |
| 7 | `C[C@@H]1CN([C@@H](C)CO)S(=O)(=O)c2ccc(C#Cc3ccccc3F)cc2O[C@H]1CN(C)C(=O)Cc1cccnc1` | -25.47 |
| 8 | `COc1ccc([Si](C)(C)[C@@H]2[C@@H](CCO)O[C@]3(C(=O)N(Cc4ccc(NC(C)=O)cc4)c4ccccc43)[C@H]2C)cc1` | -74.33 |
| 9 | `O=S(=O)(c1ccc(F)cc1)N1CCCCN2[C@H](CO)[C@H](c3ccc(C#CC4CCCC4)cc3)[C@H]2C1` | -35.53 |
| 10 | `C[C@H]1CN([C@@H](C)CO)S(=O)(=O)c2ccc(C#Cc3ccc(F)cc3)cc2O[C@H]1CN(C)C` | -46.06 |
| 11 | `O=C(C1CCCCC1)N1CC(=O)N2[C@H](C1)[C@@H](c1ccc(C#Cc3cccc(F)c3)cc1)[C@@H]2CO` | -71.15 |
| 12 | `C[C@@H]1CN([C@H](C)CO)C(=O)c2c(c3ccccc3n2C)-c2ccccc2CO[C@@H]1CN(C)Cc1cccc(F)c1` | -41.68 |
| 13 | `C[C@@H]1CCCCO[C@H](CN(C)C(=O)NC2CCCCC2)[C@@H](C)CN([C@@H](C)CO)C(=O)c2cc(NC(=O)C3CCCCC3)ccc2O1` | -43.96 |
| 14 | `O=C(c1cccc(F)c1)N1CC[C@@H]2[C@@H](CO)Nc3ccc(-c4ccccc4)cc3[C@@H]21` | -26.71 |
| 15 | `C[C@@H]1CN([C@@H](C)CO)C(=O)c2cc(C#CCC3CCCC3)cnc2O[C@H]1CN(C)CC1CCOCC1` | -27.1 |
| 16 | `COc1ccc(S(=O)(=O)Nc2ccc3c(c2)C(=O)N([C@H](C)CO)C[C@H](C)[C@@H](CN(C)Cc2ccc4c(c2)OCO4)OCCCC[C@H](C)O3)cc1` | -42.21 |
| 17 | `C[C@@H]1CN([C@H](C)CO)C(=O)c2cccc(NC(=O)C3CCOCC3)c2O[C@H]1CN(C)Cc1ccc(Oc2ccccc2)cc1` | -36.93 |
| 18 | `C[C@@H]1CN([C@H](C)CO)C(=O)c2cc(NC(=O)c3ccncc3)ccc2O[C@@H](C)CCCCO[C@H]1CN(C)Cc1ccc(C(F)(F)F)cc1` | -70.28 |
| 19 | `C[C@H](CO)N1C[C@H](C)[C@H](CN(C)C(=O)NC2CCCCC2)Oc2cc(C#Cc3ccc(F)cc3)ccc2S1(=O)=O` | -32.91 |
| 20 | `C[C@@H]1CCCCO[C@H](CN(C)C(=O)C2CCCCC2)[C@H](C)CN([C@@H](C)CO)C(=O)c2cc(NS(=O)(=O)c3ccccc3)ccc2O1` | -37.33 |
| 21 | `O=C1O[C@@H](c2ccccc2)[C@@H](c2ccccc2)N2[C@@H](c3ccccc3OCCO)[C@]3(C(=O)Nc4ccccc43)[C@@H](C(=O)N3CCN(c4ncccn4)CC3)[C@H]12` | -49.68 |
| 22 | `C[C@H]1CN([C@@H](C)CO)C(=O)c2c(c3ccccc3n2C)-c2ccccc2CO[C@@H]1CN(C)S(=O)(=O)c1cccc(F)c1` | -51.23 |
| 23 | `COc1ccccc1NC(=O)N1CC[C@@H]2[C@@H](CO)N(C)c3ccc(-c4cccc(F)c4)cc3[C@@H]21` | -56.12 |
| 24 | `COc1cccc(C(=O)Nc2ccc3c(c2)C(=O)N(C)[C@H]2CC[C@@H](CC(=O)N[C@@H](C)c4ccccc4)O[C@@H]2CO3)c1` | -43.44 |
| 25 | `C/C=C/c1ccc([C@@H]2[C@@H](CO)N3CCCCN(C(=O)Nc4ccc(F)cc4)C[C@H]23)cc1` | -51.48 |
| 26 | `CO[C@H]1CN(C)C(=O)c2ccc(NC(=O)c3ccc(Oc4ccccc4)cc3)cc2OC[C@H](C)NC[C@H]1C` | -73.27 |
| 27 | `C[C@@H]1CN([C@@H](C)CO)S(=O)(=O)c2ccc(-c3ccc(F)cc3)cc2O[C@H]1CN(C)C(=O)C1CCCCC1` | -82.86 |
| 28 | `CCCN1[C@H](CO)[C@H](c2ccc(C#Cc3ccccc3)cc2)[C@@H]1CNC1CCCC1` | -38.55 |
| 29 | `COc1ccccc1CN1C[C@@H](C)[C@H](OC)CN(C)C(=O)c2ccc(NC(=O)Nc3ccccc3OC)cc2OC[C@H]1C` | -19.33 |
| 30 | `COc1ccc(C#Cc2ccc3c(c2)O[C@H](CN(C)C(=O)CN2CCOCC2)[C@@H](C)CN([C@@H](C)CO)S3(=O)=O)cc1` | -35.78 |
| 31 | `O=C(C1CCCC1)N1CC(=O)N2[C@@H](CO)[C@@H](c3ccc(C#Cc4cccc(F)c4)cc3)[C@@H]2C1` | -34.7 |
| 32 | `C[C@H](CO)N1C[C@H](C)[C@@H](CN(C)C)Oc2ccc(NC(=O)Nc3ccc(C(F)(F)F)cc3)cc2CC1=O` | -64.32 |
| 33 | `CC(C)NC(=O)N(C)C[C@H]1Oc2cc(C#Cc3cccc(F)c3)ccc2S(=O)(=O)N([C@H](C)CO)C[C@H]1C` | -45.16 |
| 34 | `COc1ccc(S(=O)(=O)Nc2ccc3c(c2)C(=O)N([C@H](C)CO)C[C@H](C)[C@@H](CN(C)S(=O)(=O)c2ccc(F)cc2)OCCCC[C@H](C)O3)cc1` | -46.04 |
| 35 | `CCCC#Cc1ccc([C@@H]2[C@@H](CO)N(S(=O)(=O)c3cccc(F)c3)[C@H]2C#N)cc1` | -47.76 |
| 36 | `C[C@@H]1CCCCO[C@@H](CN(C)CC2CCCCC2)[C@H](C)CN([C@H](C)CO)C(=O)c2cc(NC(=O)Nc3ccc(F)cc3)ccc2O1` | -89.92 |
| 37 | `CO[C@@H](CN(C)S(=O)(=O)c1cccc(Cl)c1)[C@@H](C)CN([C@H](C)CO)S(=O)(=O)c1ccc(Cl)cc1` | -32.31 |
| 38 | `C[C@H](CO)N1C[C@H](C)[C@@H](CN(C)Cc2ccccc2)OCCCC[C@H](C)Oc2ccc(NC(=O)Nc3ccc(F)cc3)cc2C1=O` | -26.28 |
| 39 | `C[C@H](CO)N1C[C@H](C)[C@H](CN(C)Cc2ccccc2)Oc2c(NC(=O)Nc3ccc(F)cc3)cccc2C1=O` | -39.3 |
| 40 | `O=C(C[C@H]1CC[C@@H]2[C@H](COC[C@H](O)CN2Cc2ccc3c(c2)OCO3)O1)Nc1ccc(-c2ccccc2)cc1` | -40.25 |

The first 5 entries again:

For C[C@@H]1CN([C@H](C)CO)S(=O)(=O)c2ccc(C#Cc3ccccc3)cc2O[C@@H]1CN(C)C(=O)Cc1ccccn1 the result was activity change (Venus) -37.32%.
For C[C@@H]1CCCCO[C@@H](CN(C)C(=O)C2CCCCC2)[C@H](C)CN([C@@H](C)CO)C(=O)c2cc(NS(=O)(=O)c3ccccc3)ccc2O1 the result was activity change (Venus) -38.34%.
For C[C@@H]1CN([C@@H](C)CO)C(=O)c2cc(NS(=O)(=O)c3cccs3)ccc2O[C@@H]1CN(C)Cc1ccc(C(F)(F)F)cc1 the result was activity change (Venus) -41.66%.
For O=C(CC1CC1)N1CC(=O)N2[C@H](C1)[C@H](c1ccc(C#Cc3cccc(F)c3)cc1)[C@@H]2CO the result was activity change (Venus) -78.6%.
For C/C=C/c1ccc2c(c1)O[C@@H](CN(C)C(=O)Nc1ccc(C(F)(F)F)cc1)[C@@H](C)CN([C@@H](C)CO)S2(=O)=O the result was activity change (Venus) -60.88%.

From PubChem BioAssay record AID1053133 (Broad Institute, 2014).